In PubChem BioAssay AID1347423 (Functional Genomics Laboratory (NCATS/FGL), 2020):
About 210 (0.4%) of roughly 52,000 sequences were called active.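 Rule for the calls: active = gene whose silencing raises cell survival under the drug, median off-target-corrected z-score across its silencing RNAs 2 or more; inactive = the rest.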 The list shows a part of the results.

Assay: Resistance to Poly (ADP-Ribose) Polymerase inhibitor: Gene Identification via Genome-wide siRNA Screen
Details: mouse BRCA2 R2336H ES cells, olaparib, CellTiter-Glo viability; stronger effect = higher value
Procedure, shortened: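 Genome-wide siRNA screen (3 siRNAs/gene, 20 nM) in mouse ES cells carrying hypomorphic BRCA2 R2336H; olaparib 500 nM added 48 h post-transfection, CellTiter-Glo viability 72 h later. Normalized to plate-median negative control; MAD z-scores, gene median, seed-adjusted.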

Sequence	z-score
GGAUAAGAAGAAAUGUCUGTT against 6-Sep	inactive: -0.0425
GGAAGUUUCUGAAGGAACATT against Olfr630	inactive: -0.123
CCUGUAGGAGUGACUUCCUTT against Crbn	inactive: -1.38
GGCUUGUUUCCACCAAUAGTT against Creb3l2	inactive: -1.03
GCCCAAACGUGCAGUAAGUTT against 2610029D06Rik	inactive: -0.704
GCACUUGUUGUUAUACUUCTT against Olfr23	inactive: -0.264
GCGGAAAUCUAAUUGCUUGTT against Htatip	inactive: -1.22
GGAACGAACUUACAGAGAUTT against Krt1-c29	inactive: 0.0974
GGGAGUUUCCAGAUGUUUUTT against Gclm	inactive: -0.186
GGCUUGGCUUCUUUAUUGUTT against Olfr218	inactive: 0.0325
GGUUUGAAUUAGGUUAGAGTT against D330024H06Rik	inactive: -0.647
GUGGCAGCACGACCUAUUCTT against Refbp2	inactive: -2.32
GGGCGAGAUCGCUACUAUUTT against Irf2bp1	inactive: -0.881
GGUUUUGUGGGAAGAGUCATT against 0610037D15Rik	inactive: -2.4
GCCGGACAACUCUAAUCAGTT against Herpud1	inactive: 1.32
GGUCUAGGAUCAAUGCCUATT against Trpc3	inactive: -0.341
GGAAGACAAUAAGAAGUGGTT against 9130404D14Rik	inactive: -1.42
GGAUUUCUUCCAGAAGAUGTT against Grhpr	inactive: 0.431
GGGAAAAGCUUUGGUUGCCTT against Gpsm2	inactive: -0.913
GCCUGCUAGUUAUGUUUCATT against MGC90611	inactive: -3.01
GCUAGAUACUAACAACUCCTT against T	inactive: 2.4
GCCUGCAUUAAACUCAUGUTT against A930017M01Rik	inactive: -1.37
GCCGAAAAUUACCAAAUGATT against Cnksr2	inactive: -1.22

Some of the entries so far, in CSV form.
Sequence,z-score
GGAACGAACUUACAGAGAUTT against Krt1-c29,inactive: 0.0974
GGGAGUUUCCAGAUGUUUUTT against Gclm,inactive: -0.186
GGCUUGGCUUCUUUAUUGUTT against Olfr218,inactive: 0.0325
GGUUUGAAUUAGGUUAGAGTT against D330024H06Rik,inactive: -0.647
GUGGCAGCACGACCUAUUCTT against Refbp2,inactive: -2.32
GGGCGAGAUCGCUACUAUUTT against Irf2bp1,inactive: -0.881
GGUUUUGUGGGAAGAGUCATT against 0610037D15Rik,inactive: -2.4
GCCGGACAACUCUAAUCAGTT against Herpud1,inactive: 1.32
GGUCUAGGAUCAAUGCCUATT against Trpc3,inactive: -0.341
GGAAGACAAUAAGAAGUGGTT against 9130404D14Rik,inactive: -1.42
GGAUUUCUUCCAGAAGAUGTT against Grhpr,inactive: 0.431
GGGAAAAGCUUUGGUUGCCTT against Gpsm2,inactive: -0.913
GCCUGCUAGUUAUGUUUCATT against MGC90611,inactive: -3.01
GCUAGAUACUAACAACUCCTT against T,inactive: 2.4
GCCUGCAUUAAACUCAUGUTT against A930017M01Rik,inactive: -1.37
GCCGAAAAUUACCAAAUGATT against Cnksr2,inactive: -1.22

(continued)

Sequence	z-score
GGUUUAAAGAAACUACCAGTT against Pam	inactive: 0.257
GGUCAUGAAAAUUAAAGCATT against 1110059G10Rik	inactive: 2.13
CCCUUCACACGAGUAUGAATT against 1700027N10Rik	inactive: 0.279
GACAAGGUGCCAUACCAUUTT against Olfr351	inactive: 0.712
GUUUCAGUGCAGCCAUUACTT against Olfr518	inactive: 0.805
GCAAGAGGAACCUUUCUUGTT against Mmp17	inactive: -0.475
GAACUAAGACACAUCUUUGTT against Tnni3k	inactive: 0.987
GCAUCUAACUACUUGGGCCTT against Hhip	inactive: 0.3
CCAGAACUUCCCAUUAAAATT against Alg8	inactive: -0.0137
GGAUUUUUCAGGAGAUAUGTT against Ubtf	inactive: -1.5
GCUUAUACACAGUACAGAATT against D6Mm5e	inactive: -0.476
GGACAAGAAGAACAUCAUCTT against Cfl1	inactive: 0.526
GGUGUGUGGUUUUUAAUAATT against Abhd3	inactive: 0.437
GCAAUUAGUCACCAAGGCCTT against Ube2v1	inactive: -0.986
CCUCUGUCUAGAAUUACUATT against Kcnv2	inactive: -0.171
GCUAAAACAAGUUUGAAGATT against Sntg2	inactive: 1.39
CCUGAUGCCAGUUAACAGUTT against Dscr1	inactive: -0.103
GAGUGCUCUGAAAUAUUUUTT against Mup4	inactive: 0.94
GCCAAUAUAUCUGUGGUGUTT against Olfr1186	inactive: -0.503
CCGUGAAUGACUCGUCCUCTT against Dhrsx	inactive: -0.0305
GCAGAGCUUCUGCUCUUCUTT against Olfr527	inactive: 0.133
GGAGAAUCCAUUCAACUCUTT against Aoah	inactive: -0.819
GGUACAGAAACAGUUAGUUTT against Olfr432	inactive: -0.231

Sequence	z-score
GCACGAGAAAAAUACUACGTT against Slc18a2	inactive: 0.674
GGAGAAAGUGAUUGACAUATT against Lpin2	inactive: -0.387
GUCUUUUUAUGGAUGUAUGTT against V1rc13	inactive: 0.137
GCUCUGUUUUUAACCAUCCTT against Ccnt2	inactive: -0.655
CCAUGUCAAACACCUUAGUTT against Zf	inactive: -0.665
GGUAGUGCAACCAUCACGUTT against Pcdhb14	inactive: 0.87
GCACAAGCGAUGGGUUAACTT against Fkbp1a	inactive: -2.67
GCCCUAUCUCAAGUCACUATT against Entpd3	inactive: 0.487
CGAUGAGGGCAGAUACCUATT against Pthlh	inactive: 0.366
GGAGAAACUGUAGUAAAUGTT against AI317237	inactive: 0.0411
GGGCAAGAAGAGAAACUAATT against Krtcap2	inactive: -0.392
CCAUAAAUGAGUCUUCAUUTT against 4930539E08Rik	inactive: 0.335
GCAAGAAAAACAUGAACUGTT against Klra17	inactive: 0.913
GGAGCUUUCUCAGAGGUGUTT against Camk1g	inactive: -1.76
GGUGAAGACCAUCUUGACCTT against Clcnkb	inactive: -0.162
GGAGCAAGUAAAAGUAUCUTT against Fpr-rs6	inactive: -1.26
GGAGUCUAAAGGAAAUGUATT against Slc22a9	inactive: -1.42
CGGUAAAGUAGGGAAGAUGTT against Duox2	inactive: 0.346
GAACAUCAUCUCACACUCATT against Olfr874	inactive: -0.051
GGUAGAAACCUCUACUGUCTT against A830020B06Rik	inactive: 1.21
GGAACAGAACCUCAGACGATT against Itih5	inactive: 1.02
